These results are taken from paper PMC6716823.

By UniProt entry, the sequences of proteins in these tests, tags left out.
UniProt P31751: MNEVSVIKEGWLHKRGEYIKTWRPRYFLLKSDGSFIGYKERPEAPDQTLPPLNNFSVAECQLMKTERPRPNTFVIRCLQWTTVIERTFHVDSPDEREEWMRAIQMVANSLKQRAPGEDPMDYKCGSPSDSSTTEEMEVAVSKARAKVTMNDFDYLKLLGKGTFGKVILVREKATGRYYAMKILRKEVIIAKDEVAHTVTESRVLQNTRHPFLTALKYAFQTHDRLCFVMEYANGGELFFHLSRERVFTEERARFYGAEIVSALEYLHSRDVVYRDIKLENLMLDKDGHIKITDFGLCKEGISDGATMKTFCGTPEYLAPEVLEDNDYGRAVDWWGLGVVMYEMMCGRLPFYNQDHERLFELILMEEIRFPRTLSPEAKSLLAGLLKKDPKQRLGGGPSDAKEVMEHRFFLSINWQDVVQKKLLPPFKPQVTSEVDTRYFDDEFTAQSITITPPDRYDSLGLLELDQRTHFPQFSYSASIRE
UniProt Q9Y243: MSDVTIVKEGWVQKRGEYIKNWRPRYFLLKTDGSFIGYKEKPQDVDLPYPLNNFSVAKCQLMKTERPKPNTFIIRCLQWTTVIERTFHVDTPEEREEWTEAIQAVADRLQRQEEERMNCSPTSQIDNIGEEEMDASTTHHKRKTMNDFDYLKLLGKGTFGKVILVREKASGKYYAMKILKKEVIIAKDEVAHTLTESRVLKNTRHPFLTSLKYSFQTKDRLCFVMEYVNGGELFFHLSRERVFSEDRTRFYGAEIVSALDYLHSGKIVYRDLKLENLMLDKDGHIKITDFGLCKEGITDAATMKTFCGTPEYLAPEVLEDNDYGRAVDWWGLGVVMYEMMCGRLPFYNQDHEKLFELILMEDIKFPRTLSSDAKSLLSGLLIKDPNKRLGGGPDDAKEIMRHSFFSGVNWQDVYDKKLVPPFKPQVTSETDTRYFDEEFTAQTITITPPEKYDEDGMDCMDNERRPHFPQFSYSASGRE

For assay [1], the target named is T1, phosphorylated PDK1 (phosphoinositide-dependent kinase-1) (human (endogenous in HEK293T, U251, SW1783)) (UniProt O15530).
T1 sequence (chain, phosphorylated (p-PDK1); site not printed): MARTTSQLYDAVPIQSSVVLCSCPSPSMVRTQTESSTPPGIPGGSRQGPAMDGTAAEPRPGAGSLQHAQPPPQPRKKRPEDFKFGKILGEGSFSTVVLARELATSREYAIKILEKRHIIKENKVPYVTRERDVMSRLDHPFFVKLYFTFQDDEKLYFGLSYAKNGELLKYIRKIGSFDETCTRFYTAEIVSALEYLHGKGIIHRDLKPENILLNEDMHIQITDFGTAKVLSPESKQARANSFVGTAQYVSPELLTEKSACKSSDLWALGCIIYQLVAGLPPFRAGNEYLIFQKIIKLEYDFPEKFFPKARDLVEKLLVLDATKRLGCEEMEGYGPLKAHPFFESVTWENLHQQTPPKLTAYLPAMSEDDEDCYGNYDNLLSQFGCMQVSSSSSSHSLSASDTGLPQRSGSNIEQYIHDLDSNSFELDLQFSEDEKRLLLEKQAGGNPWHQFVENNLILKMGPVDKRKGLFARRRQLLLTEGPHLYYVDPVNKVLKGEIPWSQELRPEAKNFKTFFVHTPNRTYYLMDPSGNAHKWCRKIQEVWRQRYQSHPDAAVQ
Put plainly: co-IP; U251 cells transfected with increasing doses of circ-AKT3; IP with AKT2, AKT3 and p-PDK1 antibodies, immunoblot. (In general: Immunoblotting shows a protein as a band on a membrane.)

Assay [2] addresses T1, phosphorylated PDK1 (phosphoinositide-dependent kinase-1) (human (endogenous in HEK293T, U251, SW1783)). Put plainly: co-IP; SW1783 cells transfected with increasing doses of circ-AKT3 siRNA (legend: shRNA); IP with AKT2, AKT3 and p-PDK1 antibodies, immunoblot.

Results are given in words; binding and its absence hold for the method and conditions named. In cells and extracts the contact can be indirect. Some entries that bind do so weakly or less than the wild type.

For “AKT2 (from UniProt P31751 1-481) (enzyme)”, the binding result in assay [1] and in assay [2] was “binds” each time.
On to “AKT3 (from UniProt Q9Y243 1-479) (enzyme)”, for which the binding entry in assay [1] and in assay [2] was “binds” in each case.
